# In all, about 390,000 compounds went through this assay and about 4,000 (1%) were called active. Inconclusive results, whose numbers are uncertain, are shown with a selection of clear calls. The call rests on the fitted dose curve; in most records, active means well fitted inhibition curve with a large enough effect; inconclusive means small, poorly fitted or top-dose-only effect, or another doubt; inactive means no such curve, though single readings can be large or run the other way. A potency beside an inconclusive call is a rough fit, not a confirmed value.
# Protein sequences, listed by entry. Tags and fused reporters are not part of them. Lines headed by an entry give the natural chain unless they say otherwise; changes in a name come on top.
# UniProt Q9UNA4: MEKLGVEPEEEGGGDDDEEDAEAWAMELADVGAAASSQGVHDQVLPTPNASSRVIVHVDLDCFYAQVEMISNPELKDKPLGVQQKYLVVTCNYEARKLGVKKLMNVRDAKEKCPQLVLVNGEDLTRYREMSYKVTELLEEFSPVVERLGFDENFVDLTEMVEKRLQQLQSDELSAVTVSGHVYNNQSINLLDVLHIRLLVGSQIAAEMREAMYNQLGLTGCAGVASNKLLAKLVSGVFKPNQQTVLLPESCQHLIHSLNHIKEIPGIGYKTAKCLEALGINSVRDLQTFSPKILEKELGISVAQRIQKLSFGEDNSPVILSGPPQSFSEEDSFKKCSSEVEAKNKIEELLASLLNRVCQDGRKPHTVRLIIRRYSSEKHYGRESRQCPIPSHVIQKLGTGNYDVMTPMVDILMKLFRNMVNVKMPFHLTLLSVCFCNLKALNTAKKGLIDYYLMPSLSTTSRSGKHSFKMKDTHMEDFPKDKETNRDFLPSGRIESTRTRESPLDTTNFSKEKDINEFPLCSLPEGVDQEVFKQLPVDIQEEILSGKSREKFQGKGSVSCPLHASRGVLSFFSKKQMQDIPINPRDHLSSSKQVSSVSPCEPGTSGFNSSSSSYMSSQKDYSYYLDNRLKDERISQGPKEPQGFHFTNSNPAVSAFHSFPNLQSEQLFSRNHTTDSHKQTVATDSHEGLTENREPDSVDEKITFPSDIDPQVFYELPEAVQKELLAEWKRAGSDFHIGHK
# Molecular target: DNA polymerase iota (Homo sapiens) (UniProt Q9UNA4)
# Test: qHTS for Inhibitors of Polymerase Iota
# Details: Pol iota fluorescent replication assay, 10 min; series mostly up to 115 µM
# How it was run: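 Fluorescent replication assay read twice, at 0 min and 10 min after adding 50 nM (final) substrate. Enzyme (10 nM) and compounds were first incubated 15 min at room temperature; enzyme-free buffer wells were negative controls.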
# Potency means the concentration at half of the fitted maximal effect.
row,SMILES,Potency
1,C#CCOCCOCCOCCNc1nc(N2CCN(C(=O)[C@H]([C@@H](C)CC)n3cc([C@@H](N)Cc4ccc(O)cc4)nn3)CC2)nc(N2CCN(C(=O)[C@H](Cc3ccc(O)cc3)n3cc([C@@H](N)C(C)CC)nn3)CC2)n1 (stereo partly specified),"inconclusive: 70.8 µM [inhibitor, partial curve, poor fit]"
2,COc1ccc(C(=O)O)cc1NC(=S)NC(=O)CSc1ccc(Cl)cc1,inactive
3,CCNCc1cc(OCC)c(OCC(=O)NCCc2ccccc2)cc1Cl,"inconclusive: 79.4 µM [inhibitor, partial curve, poor fit]"
4,C/C(=N\N1C(=O)CSC1=S)c1ccc(Br)cc1,"inconclusive: 2.51 µM [inhibitor, partial curve, poor fit]"
5,COc1cc(NC(=O)C2CCCCN2)ccc1OCC(C)C (stereo unspecified),"inconclusive: 0.398 µM [inhibitor, full curve, poor fit]"
6,COc1ccc(CN(C(=O)Nc2cccc(Cl)c2)c2ccccn2)cc1OC,inactive
7,COc1ccc(CNC(=O)c2cc3c(=O)n4ccccc4nc3n(CC3CCCO3)c2=N)cc1 (stereo unspecified),"inconclusive: 3.55 µM [inhibitor, partial curve, poor fit]"
8,CCS(=O)(=O)C1=NN2C(=N)/C(=C\c3ccc(OCCOc4cccc(OC)c4)c(OC)c3)C(=O)N=C2S1,"inconclusive: 56.2 µM [inhibitor, partial curve, poor fit]"
9,CC(C)c1nn(-c2cc(C(F)(F)F)ccn2)c(=O)o1,"inconclusive: 89.1 µM [inhibitor, partial curve, poor fit]"
10,COc1ccc(C)cc1Nc1n[n+](-c2ccccc2)c(-c2c(Cl)cccc2Cl)s1,"inconclusive: 7.94 µM [inhibitor, partial curve]"
11,O=C(Nc1ccc2c(c1)OCO2)c1cccc2c1C(=O)N(Cc1cccnc1)C2,"inconclusive: 25.1 µM [inhibitor, full curve, poor fit]"
12,Nc1n[nH]c2cc(=O)n(-c3cccc(C(F)(F)F)c3)nc12,"inconclusive: 50.1 µM [inhibitor, partial curve, poor fit]"
13,CCNc1nc(SCC(=O)Nc2ccc(Cl)c(Cl)c2)nc(N(C)C)n1,inactive
14,COc1ccc(O)c(/C=N/NC(=O)c2cccc(N3CCCC3=O)c2)c1,"inconclusive: 79.4 µM [inhibitor, partial curve]"
15,Nc1ccc(S(=O)(=O)Nc2ccc(Cl)nn2)cc1,"inconclusive: 56.2 µM [inhibitor, partial curve, poor fit]"
16,CCOc1ccccc1NC(=O)COC(=O)c1cccc(-c2ccc(OC(C)=O)cc2)c1,"inconclusive: 112 µM [inhibitor, partial curve, poor fit]"
17,COCCn1c(C)cc(C(=O)CSc2nnc3ccccn23)c1C,"inconclusive: 70.8 µM [inhibitor, partial curve, poor fit]"
18,Cc1nc2ccccc2n2c(O)c(CC(=O)O)cc12,"inconclusive: 17.8 µM [inhibitor, full curve, poor fit]"
19,CCc1cc2c(=O)n(Cc3ccco3)c(SCC(=O)N(C)C3CCS(=O)(=O)C3)nc2s1 (stereo unspecified),"inconclusive: 25.1 µM [inhibitor, partial curve, poor fit]"
20,Cc1nc(C)c(C(=O)Nc2ccccc2-c2ccccc2)o1,"inconclusive: 25.1 µM [inhibitor, single point]"
21,CC(=O)c1ccc2c(c1)C1C=CCC1C(c1cc3c(cc1Br)OCO3)N2 (stereo unspecified),inactive

row,SMILES,Potency
1,Cc1ccc(CN(C(=O)c2ccccc2F)c2ccccn2)o1,active: 79.4 µM
2,Nc1nonc1-c1nc2ccccc2n1Cc1cccc(Cl)c1,"inconclusive: 89.1 µM [inhibitor, single point]"
3,O=C(CSc1nc(O)cc(=O)n1-c1ccccc1)Nc1ccc(Br)cn1,"inconclusive: 50.1 µM [inhibitor, partial curve, poor fit]"
4,COCCCNC(=S)Nc1ccc(C)cc1,"inconclusive: 31.6 µM [inhibitor, partial curve, poor fit]"
5,O=[N+]([O-])c1ccccc1NC(=S)N/N=C/c1ccc(O)c(O)c1,active: 8.91 µM
6,CCOc1ccc(C(=O)Nc2cccc(C(=O)OCc3cc(=O)n4nc(C5CC5)sc4n3)c2)cc1,inactive
7,O=C1C=C(O)c2cccc(O)c2C1=O,"inconclusive: 25.1 µM [inhibitor, partial curve, poor fit]"
8,CCS(=O)(=O)C1=NN2C(=N)/C(=C\c3ccc(OS(=O)(=O)c4ccccc4)cc3)C(=O)N=C2S1,"inconclusive: 14.1 µM [inhibitor, full curve, poor fit]"
9,Cc1ccc(-c2nnc(-c3cccc(NC(=O)c4cccs4)c3)o2)cc1,"inconclusive: 28.2 µM [inhibitor, full curve, poor fit]"
10,Cc1cc2ccccc2n1CCNC(=O)c1ccccc1,"inconclusive: 22.4 µM [inhibitor, full curve, poor fit]"
11,O=C(O)c1ccc(/C=C2\SC(=S)N(NC(=O)c3ccccc3[N+](=O)[O-])C2=O)cc1,"inconclusive: 15.8 µM [inhibitor, partial curve, poor fit]"
12,O=C(CCc1nnc2ccc(NCc3ccco3)nn12)Nc1ccccc1F,"inconclusive: 15.8 µM [inhibitor, full curve, poor fit]"
13,CC(=O)Nc1ccc(NC(=O)CSc2nc3nc(-c4cccs4)cc(C(F)(F)F)c3c(=O)[nH]2)cc1,inactive
14,CCOc1ccc(-c2cc(C(=O)Nc3ccc(NC(C)=O)cc3)no2)cc1,inactive
15,O=C(O)CCCNc1cc(N2CCN(C3CCCCC3)CC2)c2noc3c2c1C(=O)c1ccccc1-3,"inconclusive: 22.4 µM [inhibitor, full curve]"
16,CCc1ccc(-c2cc(C(=O)NCc3ccco3)c3ccccc3n2)s1,"inconclusive: 25.1 µM [inhibitor, full curve]"
17,O=C(CN1CCN(Cc2ccccc2Cl)C1=O)NCCCN1CCOCC1,"inconclusive: 0.631 µM [inhibitor, full curve, poor fit]"
18,COc1ccc(C(C)NC(=O)c2ccc([N+](=O)[O-])cc2)cc1OC (stereo unspecified),"inconclusive: 100 µM [inhibitor, single point]"
19,COc1ccc(-n2c(C)cc(/C=C3\SC(=S)N(Cc4ccco4)C3=O)c2C)cc1,"inconclusive: 89.1 µM [inhibitor, partial curve, poor fit]"
20,O=C([C@@H]1CC=C[C@@H]2CCN(C3CCCCC3)C(=O)[C@@H]21)N1CCN(c2ccccc2)CC1,"inconclusive: 89.1 µM [inhibitor, single point]"
21,Cc1ccc(C)c(OCc2cc(C(=O)N3CCOCC3)no2)c1,"inconclusive: 15.8 µM [inhibitor, single point]"

# Part of the list above in order of SMILES length, falling:
row,SMILES,Potency
8,CCS(=O)(=O)C1=NN2C(=N)/C(=C\c3ccc(OS(=O)(=O)c4ccccc4)cc3)C(=O)N=C2S1,"inconclusive: 14.1 µM [inhibitor, full curve, poor fit]"
1,Cc1ccc(CN(C(=O)c2ccccc2F)c2ccccn2)o1,active: 79.4 µM
10,Cc1cc2ccccc2n1CCNC(=O)c1ccccc1,"inconclusive: 22.4 µM [inhibitor, full curve, poor fit]"

# (further entries)

row,SMILES,Potency
1,O=C(CSc1ncn[nH]1)Nc1nc(-c2ccccc2)ns1,"inconclusive: 11.2 µM [inhibitor, full curve, poor fit]"
2,O=C(CSc1c(Cl)cccc1Cl)N1CCC(c2nc3ccccc3s2)CC1,"inconclusive: 20 µM [inhibitor, partial curve, poor fit]"
3,CCCNC(=O)Cn1sc2nc(C)cc(C)c2c1=O,inactive
4,O=C(Nc1cccc(Oc2ccc(C(=O)O)c(C(=O)O)c2)c1)c1ccc(-c2ccccc2)cc1,"inconclusive: 39.8 µM [inhibitor, partial curve]"
5,Cc1ccc(S(=O)(=O)NCc2ccc3c(c2)OCO3)cc1C,"inconclusive: 7.94 µM [inhibitor, partial curve, poor fit]"
6,CCC(=O)N1CCC2(CC1)Oc1ccc(Cl)cc1C(=O)C21CC(c2cccnc2)=NO1 (stereo unspecified),"inconclusive: 39.8 µM [inhibitor, single point]"
7,COc1ccc(C2CC(=O)N3CN(c4ccccc4F)CSC3=C2C#N)cc1OC (stereo unspecified),"inconclusive: 2.82 µM [inhibitor, full curve, poor fit]"
8,Cc1ccc(-c2cc(-c3cccc(F)c3)n[nH]2)c(O)c1,"inconclusive: 14.1 µM [inhibitor, partial curve]"
9,OCCN1CCN(C(c2ccccc2Cl)c2sc3nc(-c4ccco4)nn3c2O)CC1 (stereo unspecified),"inconclusive: 2.82 µM [inhibitor, full curve, poor fit]"
10,Cc1ccc(C(=O)Nc2ccccc2C(=O)NCc2ccccc2)cc1,"inconclusive: 89.1 µM [inhibitor, single point]"
11,CC1Cc2ccccc2N1C(=O)CSc1nnc(-c2ccccc2Cl)o1 (stereo unspecified),inactive
12,CCOC(=O)N1CCN(c2c(NCCc3ccc(C)cc3)c(=O)c2=O)CC1,"inconclusive: 39.8 µM [inhibitor, single point]"
13,CNc1nc2c(-c3ccc(Cl)cc3)nnn2c2ccccc12,"inconclusive: 79.4 µM [inhibitor, single point]"
14,COCCOC(=O)c1cc(C(=O)c2cc(F)ccc2O)coc1=N,"inconclusive: 31.6 µM [inhibitor, single point]"
15,CCOC(=O)CCCCC(=O)c1[nH]c(=O)[nH]c1CSc1nc2ccccc2[nH]1,inactive
16,Cc1ccc(C)c(N2CCN(C(=O)c3ccc4c(c3)N(Cc3ccc(F)cc3)C(=O)c3ccccc3S4=O)CC2)c1 (stereo unspecified),inactive
17,Cc1ccc(N=C(NOCc2ccc(Cl)cc2Cl)c2nonc2N)c(C)c1,"inconclusive: 50.1 µM [inhibitor, partial curve, poor fit]"
18,Cn1c(CCN2CCCCC2)nc2cc([N+](=O)[O-])ccc21,"inconclusive: 89.1 µM [inhibitor, single point]"
19,Cn1c2ccccc2n2c(=O)c(=O)n(CC(=O)c3ccc(F)cc3)nc12,"inconclusive: 89.1 µM [inhibitor, single point]"

# A different layout for some results above:
row | SMILES | Potency
16 | CCOc1ccccc1NC(=O)COC(=O)c1cccc(-c2ccc(OC(C)=O)cc2)c1 | inconclusive: 112 µM [inhibitor, partial curve, poor fit]
17 | COCCn1c(C)cc(C(=O)CSc2nnc3ccccn23)c1C | inconclusive: 70.8 µM [inhibitor, partial curve, poor fit]

# — PubChem BioAssay AID588590 (National Center for Advancing Translational Sciences (NCATS), 2011)
